“And” between values parts separate entries of the source, which are not always exact repeats. Equal entries are not always repeated. Structures can show the parent of a compound that is named as a salt. ± gives the standard deviation of the averaged measurements. Some of the results follow. Repeats are few or missing, and single values can be far off.
Test system: RAW 264.7
Experiment: cell viability (MTT) relative to vehicle control; higher = more viable cells
Conditions: stimulus: HMGB1 5 ug/ml, 18 h
[1] = compound concentration: 1 ug/ml

Structure (SMILES) | cell viability (compound concentration: 3 uM) | cell viability [1]
C=C[C@H]1CN2CC[C@H]1C[C@H]2[C@H](O)c1ccnc2ccccc12 | 99.8% | 
O=C1C=CC(=O)c2c(O)cccc21 | 121% | 
COC[C@H]1OC(=O)c2coc3c2[C@@]1(C)C1=C(C3=O)[C@@H]2CCC(=O)[C@@]2(C)C[C@H]1OC(C)=O [Wortmannin from Penicillium funiculosum] | 93.5% | 
Clc1cnc(Oc2ccc(Oc3ncc(Cl)cc3Cl)cc2)c(Cl)c1 | 109% | 
Oc1cc2c(cc1O)[C@H]1c3ccccc3CN[C@@H]1CC2 | 86.6% | 
CNCCc1ccc(O)c(O)c1 [N-Methyldopamine hydrochloride] | 103% | 
Oc1ccc(CC2NCCc3cc(O)c(O)cc32)cc1O (stereo not given) [Tetrahydropapaveroline hydrobromide] |  | 92%
OC[C@@H]1CCCN2CCCC[C@H]12 [Lupinine] |  | 97.6%
COC1=CC2C3Cc4ccc(OC)c(O)c4C2(CCN3C)CC1=O (stereo not given) |  | 83.2%
C=CC[C@]1(O)CC[C@H]2[C@@H]3CCC4=CC(=O)CCC4=C3C=C[C@@]21C | 113% | 
CC(Cc1ccc(O)cc1)NCC(O)c1cc(O)cc(O)c1 (stereo not given) | 105% | 
CC(Cc1ccc(O)cc1)NCC(O)c1cc(O)cc(O)c1 (stereo not given) [Fenoterol hydrobromide] | 101 ± 2% | 
C=C1[C@@H]2CC[C@H]3[C@]4(C)C[C@H](O[C@@H]5O[C@H](CO)[C@@H](OS(=O)(=O)O)[C@H](OS(=O)(=O)O)[C@H]5OC(=O)CC(C)C)C[C@@H](C(=O)O)[C@H]4CC[C@]3(C2)[C@@H]1O [Atractyloside potassium salt] | 120% | 
C=C[C@H]1CN2CC[C@H]1C[C@@H]2[C@@H](O)c1ccnc2ccccc12 | 106% | 
C=C[C@H]1CN2CC[C@H]1C[C@@H]2[C@@H](O)c1ccnc2ccccc12 [(+)-Cinchonine] |  | 79.4%
Cn1cnc(CCN)c1 [1-Methylhistamine dihydrochloride] | 103% | 98.1%
C1CCc2nnnn2CC1 [Pentylenetetrazole] | 102 ± 4.2% | 
C1CCc2nnnn2CC1 | 102% | 
CNCC(O)c1ccc(O)cc1 (racemic) [(+,-)-Synephrine] | 95% | 
CNCC(O)c1ccc(O)cc1 (racemic) [(±)-Synephrine] | 119% | 
CN(N=O)c1ccc(O)c(O)c1 [Me-3,4-dephostatin] | 121% | 

Retrieved one by one from the list above (5):
Structure (SMILES) | cell viability (compound concentration: 3 uM) | cell viability [1]
CC(Cc1ccc(O)cc1)NCC(O)c1cc(O)cc(O)c1 (stereo not given) [Fenoterol hydrobromide] | 101 ± 2% | 
C1CCc2nnnn2CC1 | 102% | 
COC1=CC2C3Cc4ccc(OC)c(O)c4C2(CCN3C)CC1=O (stereo not given) |  | 83.2%
CNCC(O)c1ccc(O)cc1 (racemic) [(±)-Synephrine] | 119% | 
C=C[C@H]1CN2CC[C@H]1C[C@@H]2[C@@H](O)c1ccnc2ccccc12 [(+)-Cinchonine] |  | 79.4%

Later entries:

Structure (SMILES) | cell viability (compound concentration: 3 uM) | cell viability [1]
CCCN1CCC[C@@H]2Cc3nc(N)ncc3C[C@H]21 [Quinelorane dihydrochloride] | 103% | 
C[C@]12CC[C@@H](O)C[C@@H]1CC[C@@H]1[C@@H]2CC[C@]2(C)C(=O)CC[C@@H]12 [Androsterone] | 117% | 
CC1=CC(=O)C2=C(C)C[C@H](O)[C@@H]3[C@H](OC(=O)[C@H]3C)[C@H]12 [Austricine] |  | 96%
COP(=S)(OC)Oc1ccc(SC)c(C)c1 | 111% | 
O=c1[nH]c2ccccc2n1CCCN1CCC(n2c(=O)[nH]c3cc(Cl)ccc32)CC1 [Domperidone] | 104 ± 11% | 
O=C([O-])c1ccccc1-c1c2cc(Br)c(=O)cc-2oc2[c]([Hg+])c([O-])c(Br)cc12.[Na+].[Na+].[OH-] | 109% | 
O=C([O-])c1ccccc1-c1c2cc(Br)c(=O)cc-2oc2[c]([Hg+])c([O-])c(Br)cc12.[Na+].[Na+].[OH-] [Merbromin] | 115% | 
CC(C)[N+](C)(CCC(C(N)=O)(c1ccccc1)c1ccccc1)C(C)C | 104% | 
CC(C)[N+](C)(CCC(C(N)=O)(c1ccccc1)c1ccccc1)C(C)C [Isopropamide iodide] | 120% | 
C#C[C@]1(O)CC[C@H]2[C@@H]3CCC4=CC(=O)CC[C@]4(C)[C@H]3CC[C@@]21C [Ethisterone] | 100.5 ± 0.44% | 
C#C[C@]1(O)CC[C@H]2[C@@H]3CCC4=CC(=O)CC[C@]4(C)[C@H]3CC[C@@]21C | 110% | 
C=CCN1CC[C@]23c4c5ccc(O)c4O[C@H]2/C(=N/NC(=O)c2ccccc2)CC[C@@]3(O)[C@H]1C5 [Naloxone benzoylhydrazone] | 109% | 
CC(C)CC(N(C)C)C1(c2ccc(Cl)cc2)CCC1 (stereo not given) [Sibutramine] | 93.7 ± 9.4% | 
CC(C)CC(N(C)C)C1(c2ccc(Cl)cc2)CCC1 (stereo not given) [Sibutramine HCl] | 89.2% | 
CC(C)CC(N(C)C)C1(c2ccc(Cl)cc2)CCC1 (stereo not given) | 104% and 100% | 
CNC1(c2ccccc2Cl)CCCCC1=O (stereo not given) | 115% | 
COc1ccc(CC2c3cc(OC)c(OC)cc3CCN2C)cc1OC (stereo not given) [Laudanosine] |  | 95.2%
NC(N)=NOCC[C@H](N)C(=O)O | 98% | 
NC(N)=NOCC[C@H](N)C(=O)O [L-Canavanine] | 104% | 
NC(N)=NOCC[C@H](N)C(=O)O [L-Canavanine sulfate] | 108% | 
N[C@@H](Cn1oc(=O)[nH]c1=O)C(=O)O [(+)-Quisqualic acid] | 93.9% | 

Structure (SMILES) | cell viability (compound concentration: 3 uM) | cell viability [1]
C#CCN(C)C(C)Cc1ccccc1 (stereo not given) [Deprenyl HCl] | 105 ± 4.9% | 
C[N+]1(CCC(C(N)=O)(c2ccccc2)c2ccccc2)CCCCC1 | 98.4% | 
S=C(NC1CCCCC1)N1CCC(c2cnc[nH]2)CC1 [Thioperamide maleate] | 112 ± 10% | 
O=C([O-])Cc1ccccc1.[Na+] [Sodium Phenylacetate] | 101% | 
C[C@]12CC[C@H]3[C@@H](CC[C@]4(O)C[C@@H](O)CC[C@]34C=O)[C@@]1(O)CC[C@@H]2C1=CC(=O)OC1 [Strophanthidin] |  | 105%
NC(=O)CN1CCCC1=O [Piracetam] | 92.3 ± 16% | 
NC(=O)CN1CCCC1=O | 113% | 
COc1cc2c(cc1OC)C(C)NCC2 (stereo not given) | 79% | 
NCc1cc(O)no1 [Muscimol hydrobromide] | 103% | 
C=CCN1C[C@H](C(=O)N(CCCN(C)C)C(=O)NCC)C[C@@H]2c3cccc4[nH]cc(c34)C[C@H]21 [Cabergoline] | 96.2% | 
Oc1ccc2c3c1O[C@H]1c4oc5ccccc5c4C[C@@]4(O)[C@@H](C2)N(CC2CC2)CC[C@]314 [Naltriben methanesulfonate] | 105% | 
Oc1ccc2c3c1O[C@H]1c4oc5ccccc5c4C[C@@]4(O)[C@@H](C2)N(CC2CC2)CC[C@]314 [Naltriben methanesulfonate hydrate] | 112% | 
O=P1(NCCCl)OCCCN1CCCl (stereo not given) | 101 ± 4.6% | 
O=P1(NCCCl)OCCCN1CCCl (stereo not given) [Ifosfamide] | 99.6 ± 1.1% | 
Oc1ccc(Cl)cc1 | 104% | 
CN1CC[C@@]2(C)c3cc(OC(=O)Nc4ccccc4)ccc3N(C)[C@@H]12 [Phenserine] | 99.3% | 
N#CCCN [3-Aminopropionitrile fumarate] | 103% | 
CC(C)c1c(CN(C)C(C)Cc2ccccc2)n(C)n(-c2ccccc2)c1=O (stereo not given) | 113% | 
CC(C)c1c(CN(C)C(C)Cc2ccccc2)n(C)n(-c2ccccc2)c1=O (stereo not given) [Famprofazone] | 109% | 
C=C(C)[C@@H]1[C@H]2OC(=O)[C@@H]1[C@]1(O)C[C@H]3O[C@]34C(=O)O[C@H]2[C@]14C [Picrotoxinin] | 109% | 94%
C=C(C)[C@@H]1[C@H]2OC(=O)[C@@H]1[C@]1(O)C[C@H]3O[C@]34C(=O)O[C@H]2[C@]14C | 99.1% | 

Structure (SMILES) | cell viability (compound concentration: 3 uM) | cell viability [1]
CC(C)NP(=O)(NC(C)C)OP(=O)(NC(C)C)NC(C)C [Tetraisopropyl pyrophosphoramide] | 115% | 
C=CCc1ccccc1OCC(O)CNC1(C)CCC(C(C)(C)NC(=O)CBr)CC1 (stereo not given) [Bromoacetyl alprenolol menthane] | 79.2% | 
CC(=O)OCC(=O)[C@H]1CC[C@H]2[C@@H]3CC[C@H]4C[C@H](O)CC[C@]4(C)[C@H]3C(=O)C[C@]12C [Alfadolone acetate] | 72.4% | 
Cc1c2ccncc2c(C)c2c1[nH]c1ccccc12 [Ellipticine] | 94.7% | 
CC(=O)NBr [N-Bromoacetamide] | 98.4% | 
NC(=O)C[S+]([O-])C(c1ccccc1)c1ccccc1 (stereo not given) [Modafinil] | 106 ± 7.9% | 
NC(=O)C[S+]([O-])C(c1ccccc1)c1ccccc1 (stereo not given) | 108% | 
C=C1[C@@H](C)[C@H]2[C@H](Cc3ccccc3)NC(=O)[C@]23OC(=O)/C=C/[C@H](O)CCC[C@@H](C)C/C=C/[C@H]3[C@@H]1O | 105% | 
CN1CCN(C(=O)OC2c3nccnc3C(=O)N2c2ccc(Cl)cn2)CC1 (stereo not given) | 112% | 
CN1CCN(C(=O)OC2c3nccnc3C(=O)N2c2ccc(Cl)cn2)CC1 (stereo not given) [Zopiclone] | 107% | 
Clc1ccc(C(OCCN2CCCCC2)c2ccccc2)cc1 (stereo not given) | 112% | 
Clc1ccc(C(OCCN2CCCCC2)c2ccccc2)cc1 (stereo not given) [Cloperastine hydrochloride] | 131% | 
C[C@@H](CO)NC(=O)[C@@H]1C=C2c3cccc4[nH]cc(c34)C[C@H]2N(C)C1 [Ergonovine] |  | 102%
C[C@@H](CO)NC(=O)[C@@H]1C=C2c3cccc4[nH]cc(c34)C[C@H]2N(C)C1 | 107% | 
Cc1c(N)nc([C@H](CC(N)=O)NC[C@H](N)C(N)=O)nc1C(=O)N[C@H](C(=O)N[C@H](C)[C@@H](O)[C@H](C)C(=O)N[C@H](C(=O)NCCc1nc(-c2nc(C(=O)NCCC[S+](C)C)cs2)cs1)[C@@H](C)O)[C@@H](OC1OC(CO)C(O)C(O)C1OC1OC(CO)C(O)C(OC(N)=O)C1O)c1cnc[nH]1 (stereo not given in full) [Bleomycin] | 98.2% | 
C[C@]12CC[C@H](O)C[C@H]1CC[C@@H]1[C@@H]2C[C@@H](O)[C@]2(C)[C@@H](C3=CC(=O)OC3)CC[C@]12O [Digoxigenin] | 109% | 98.6%
NCCc1c[nH]c2ccccc12 [Tryptamine hydrochloride] | 104% | 
Clc1ccc(N2C[C@H]3CC[C@@H](C2)N3)nn1 | 99% | 
CC(=O)NC1CCSC1=O (racemic) [N-Acetyl-DL-homocysteine Thiolactone] | 107% | 

As a short view, some entries already given.
Structure (SMILES) | cell viability (compound concentration: 3 uM) | cell viability [1]
C[C@@H](CO)NC(=O)[C@@H]1C=C2c3cccc4[nH]cc(c34)C[C@H]2N(C)C1 [Ergonovine] |  | 102%
C[C@@H](CO)NC(=O)[C@@H]1C=C2c3cccc4[nH]cc(c34)C[C@H]2N(C)C1 | 107% | 

From the supplement of paper PMC3682954
